Test results published in patent US20230035798A1.
Where a chain is given by its changes, count along the chain named. These are yes or no findings as the source states them, for the method shown. Some binding calls cover weakened binding; strength is not graded here.

Chains of the proteins cited; added tags and fusions are not shown. Lines headed by an entry give the natural chain unless they say otherwise; changes in a name come on top.
UniProt O43557: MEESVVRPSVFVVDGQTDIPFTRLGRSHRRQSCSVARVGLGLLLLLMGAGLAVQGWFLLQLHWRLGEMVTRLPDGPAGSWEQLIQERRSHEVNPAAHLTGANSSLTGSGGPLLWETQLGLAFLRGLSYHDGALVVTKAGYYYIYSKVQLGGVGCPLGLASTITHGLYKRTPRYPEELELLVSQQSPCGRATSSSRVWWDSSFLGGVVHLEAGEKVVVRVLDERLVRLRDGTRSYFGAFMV

B1: 3D12 (antibody, human IgG4, V domains shown)
VH: QVQLQQPGAELVRPGASVTLSCKASDYTFTDSEIHWVKQTPVHGLEWIGEIDPETGGTAYNQKFKGKATLTADKSSSTAYMELRSLTSEDSAVYYCSRETDYFFDYWGQGTTLTVSS
VL: DIQMTQSPASLSASVGETVTITCGASENIYGALNWYQRKQGKSPQLLIYGATNLADGMSSRFSGSGSGRQYSLKISSLHPDDVATYYCQNVLSTPWTFGGGTKLEIKR
B2: 3C10 (antibody, human IgG4, V domains shown)
VH: B1 VH with Q1E, P7S
VL: DVVMTQTPAIMSASPGEKVTMTCSASSSVSYMYWYQQKPGSSPRLLIYDTSNLASGVPVRFSGSGSGTSYSLTISRMEAEDAATYYCQQWSSYPLTFGAGTKLELK
B3: 3B04 (antibody, human IgG4, V domains shown)
VH: B1 VH with D26G, S32Y, I34M, G57D, N61S, L83F
VL: B1 VL with S7T, V83F, S93T
B4: 3A07 (antibody, human IgG4, V domains shown)
VH: B1 VH with P7S, S17P
VL: B2 VL with D1E, V2N, M4L, T7S, K38R, A99S, L105I
B5: 2B11 (antibody, human IgG4, V domains shown)
VH: EVQLVESGAELVRPGVSVKISCKGSGYTFTDYAIHWVKQSHAKSLEWIGVISTYYGDASYNQKFKGKATMTVDKSSSTAYMELARLTSEDSAIYYCARSRGEYGNYDAMDYWGQGTSVTVSS
VL: DIVLTQSPASLAVSLGQRATISCRASESVDSYGNSFMHWYQQKPGQPPKLLIYRASNLESGIPARFSGSGSRTDFTLTINPVEADDVATYYCQQSNEDPYTFGGGTKLEIK

Target: human LIGHT (TNFSF14), full length, membrane-bound (214E allele) (human) (UniProt O43557)
Test: flow cytometry, EL4-LIGHT cells

binding, binds:
B1
B2
B3
B4
B5

Target: human LIGHT (TNFSF14), full length, membrane-bound (214E allele) (human) (UniProt O43557)
Test: flow cytometry, mAb binding to EL4 cells stably expressing human LIGHT [upper panel]

binding, binds:
B3

Target: human LIGHT (TNFSF14), full length, membrane-bound (214E allele) (human) (UniProt O43557)
Test: flow cytometry, mAb binding to EL4 cells stably expressing human LIGHT [lower panel]

binding, binds:
B1
B3

Target: human LIGHT (TNFSF14), full length, membrane-bound (214E allele) (human) (UniProt O43557)
Test: flow cytometry competition: graded mAb against biotinylated HVEM-Fc binding to HEK293FF cells transiently expressing human LIGHT

binding, binds:
B1
B2
B3
B4
B5

Target: human LIGHT (TNFSF14), full length, membrane-bound (214E allele) (human) (UniProt O43557)
Test: flow cytometry competition: graded mAb against biotinylated LTβR-Fc binding to HEK293FF cells transiently expressing human LIGHT

binding, binds:
B1
B2
B3
B4
B5

Target: human LIGHT (TNFSF14), full length, membrane-bound (214E allele) (human) (UniProt O43557)
Test: comparison of BIAcore KD and cell-based KD

binding, binds:
B1
B3
